Laboratory results from paper doi:10.1101/2025.06.23.661224.
No constants are given. Whether binding was seen depends on the method and setting. Some binding calls cover weakened binding; strength is not graded here.

Biological target: isoamylase 1 (potato ISA1) (potato (Solanum tuberosum)) (UniProt Q84YG7)
Assay: two-hybrid

binding: binds
B1: isoamylase 1 (potato ISA1) (enzyme, UniProt Q84YG7 1-793)
chain: MELLHCPSISTYKPKLSFHNHLFSRRSSNGVDFESIWRKSRSSVVNAAVDSGRGGVVKTAATAVVVEKPTTERCRFEVLSGKPLPFGATATDGGVNFAVFSRNATAATLCLITLSDLPEKRVTEQIFLDPLANKTGDVWHVFLKGDFENMLYGYKFDGKFCPEEGHYFDSSQIVLDPYAKAIVSRGEYGVLGPEDDCWPPMAGMVPSASDQFDWEGDLPLKFPQRDLVIYEMHVRGFTNHESSETKYPGTYLGVVEKLDHLKELGVNCIELMPCHEFNELEYYSYNSVLGDYKFNFWGYSTVNFFSPMGRYSSAGLSNCGLGAINEFKYLVKEAHKRGIEVIMDVVFNHTAEGNENGPILSFRGIDNSVFYTLAPKGEFYNYSGCGNTFNCNNPIVRQFIVDCLRYWVTEMHVDGFRFDLASILTRSSSSWNAVNVYGNSIDGDVITTGTPLTSPPLIDMISNDPILRGVKLIAEAWDCGGLYQVGMFPHWGIWSEWNGKYRDMVRQFIKGTDGFSGAFAECLCGSPNLYQKGGRKPWNSINFVCAHDGFTLADLVTYNNKHNLANGEDNKDGENHNNSWNCGEEGEFASIFVKKLRKRQMRNFFLCLMVSQGVPMIYMGDEYGHTKGGNNNTYCHDNYINYFRWDKKDESSSDFLRFCGLMTKFRHECESLGLDGFPTAERLQWHGHTPRTPDWSETSRFVAFTLVDKVKGELYIAFNASHLPVTITLPDRPGYRWQPFVDTGKPAPFDFLTDDVPERETAAKQYSHFLDANQYPMLSYSSIILLLSSADDA
